## Percent effect of library compounds

Amino acid sequences for entries named in this document (tags omitted). Residues count along the entry.
UniProt P9WPC5, whole entry: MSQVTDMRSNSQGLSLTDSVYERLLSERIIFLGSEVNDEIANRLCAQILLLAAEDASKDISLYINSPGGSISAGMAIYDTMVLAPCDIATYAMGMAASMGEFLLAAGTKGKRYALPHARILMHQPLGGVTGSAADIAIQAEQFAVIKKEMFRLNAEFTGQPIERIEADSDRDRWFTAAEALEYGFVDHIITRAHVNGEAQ
UniProt P9WPC3, whole entry partner: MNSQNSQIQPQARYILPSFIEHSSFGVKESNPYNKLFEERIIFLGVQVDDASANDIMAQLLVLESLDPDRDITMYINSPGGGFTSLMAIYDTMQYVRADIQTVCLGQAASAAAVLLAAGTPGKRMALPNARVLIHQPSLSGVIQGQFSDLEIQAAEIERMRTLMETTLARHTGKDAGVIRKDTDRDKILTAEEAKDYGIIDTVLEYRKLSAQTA
UniProt I6X8D2, whole entry: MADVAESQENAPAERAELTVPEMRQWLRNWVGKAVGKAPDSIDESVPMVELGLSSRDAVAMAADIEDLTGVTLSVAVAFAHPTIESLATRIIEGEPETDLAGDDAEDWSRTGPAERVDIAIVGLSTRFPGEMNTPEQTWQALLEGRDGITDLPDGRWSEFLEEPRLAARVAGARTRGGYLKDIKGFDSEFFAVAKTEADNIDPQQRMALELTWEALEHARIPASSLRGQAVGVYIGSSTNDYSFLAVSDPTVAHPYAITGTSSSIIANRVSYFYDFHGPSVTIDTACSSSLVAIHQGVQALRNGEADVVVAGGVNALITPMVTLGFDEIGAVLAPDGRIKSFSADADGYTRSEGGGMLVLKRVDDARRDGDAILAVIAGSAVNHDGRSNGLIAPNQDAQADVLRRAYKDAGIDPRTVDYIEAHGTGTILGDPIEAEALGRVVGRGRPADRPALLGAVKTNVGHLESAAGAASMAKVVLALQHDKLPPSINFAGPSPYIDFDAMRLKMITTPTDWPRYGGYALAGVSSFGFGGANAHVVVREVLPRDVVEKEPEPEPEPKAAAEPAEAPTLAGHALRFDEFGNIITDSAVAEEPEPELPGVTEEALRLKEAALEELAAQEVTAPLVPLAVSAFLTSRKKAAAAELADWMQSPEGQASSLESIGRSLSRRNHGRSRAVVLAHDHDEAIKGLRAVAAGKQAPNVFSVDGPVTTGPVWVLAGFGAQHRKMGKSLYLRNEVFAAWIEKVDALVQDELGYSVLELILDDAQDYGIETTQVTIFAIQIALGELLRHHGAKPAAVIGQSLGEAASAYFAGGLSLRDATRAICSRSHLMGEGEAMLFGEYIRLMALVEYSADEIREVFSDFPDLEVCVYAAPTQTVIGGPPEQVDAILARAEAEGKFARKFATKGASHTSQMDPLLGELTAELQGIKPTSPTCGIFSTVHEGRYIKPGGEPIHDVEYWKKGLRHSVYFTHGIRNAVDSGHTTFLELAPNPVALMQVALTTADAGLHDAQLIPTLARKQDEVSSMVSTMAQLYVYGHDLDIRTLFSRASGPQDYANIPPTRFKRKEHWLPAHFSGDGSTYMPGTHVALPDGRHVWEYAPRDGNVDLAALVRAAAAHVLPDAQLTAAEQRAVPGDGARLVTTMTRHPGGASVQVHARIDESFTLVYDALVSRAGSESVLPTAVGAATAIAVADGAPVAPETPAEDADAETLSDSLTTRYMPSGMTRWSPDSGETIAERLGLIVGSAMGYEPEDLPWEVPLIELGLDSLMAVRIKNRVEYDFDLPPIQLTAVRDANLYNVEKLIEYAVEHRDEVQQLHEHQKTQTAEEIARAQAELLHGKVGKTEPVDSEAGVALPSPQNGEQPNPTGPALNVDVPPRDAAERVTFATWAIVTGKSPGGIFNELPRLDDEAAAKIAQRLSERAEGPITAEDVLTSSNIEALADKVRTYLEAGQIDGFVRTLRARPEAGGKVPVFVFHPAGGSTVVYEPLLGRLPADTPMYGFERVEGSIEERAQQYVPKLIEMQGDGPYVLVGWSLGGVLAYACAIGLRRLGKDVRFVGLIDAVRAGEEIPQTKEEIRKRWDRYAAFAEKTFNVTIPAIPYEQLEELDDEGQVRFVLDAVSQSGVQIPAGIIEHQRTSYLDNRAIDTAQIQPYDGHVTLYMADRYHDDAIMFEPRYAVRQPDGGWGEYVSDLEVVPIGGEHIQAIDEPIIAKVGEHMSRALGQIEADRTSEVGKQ
UniProt P9WNZ1, whole entry: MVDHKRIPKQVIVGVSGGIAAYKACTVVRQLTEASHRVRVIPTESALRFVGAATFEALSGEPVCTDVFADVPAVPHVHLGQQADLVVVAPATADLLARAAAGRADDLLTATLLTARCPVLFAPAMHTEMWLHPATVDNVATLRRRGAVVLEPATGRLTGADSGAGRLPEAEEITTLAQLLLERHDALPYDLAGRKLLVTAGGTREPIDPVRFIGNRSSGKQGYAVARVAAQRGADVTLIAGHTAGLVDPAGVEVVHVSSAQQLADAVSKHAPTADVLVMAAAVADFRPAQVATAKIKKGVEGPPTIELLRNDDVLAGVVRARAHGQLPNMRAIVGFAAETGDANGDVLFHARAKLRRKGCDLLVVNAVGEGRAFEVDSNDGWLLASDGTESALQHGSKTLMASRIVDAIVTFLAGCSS
UniProt A4I591, 1-473: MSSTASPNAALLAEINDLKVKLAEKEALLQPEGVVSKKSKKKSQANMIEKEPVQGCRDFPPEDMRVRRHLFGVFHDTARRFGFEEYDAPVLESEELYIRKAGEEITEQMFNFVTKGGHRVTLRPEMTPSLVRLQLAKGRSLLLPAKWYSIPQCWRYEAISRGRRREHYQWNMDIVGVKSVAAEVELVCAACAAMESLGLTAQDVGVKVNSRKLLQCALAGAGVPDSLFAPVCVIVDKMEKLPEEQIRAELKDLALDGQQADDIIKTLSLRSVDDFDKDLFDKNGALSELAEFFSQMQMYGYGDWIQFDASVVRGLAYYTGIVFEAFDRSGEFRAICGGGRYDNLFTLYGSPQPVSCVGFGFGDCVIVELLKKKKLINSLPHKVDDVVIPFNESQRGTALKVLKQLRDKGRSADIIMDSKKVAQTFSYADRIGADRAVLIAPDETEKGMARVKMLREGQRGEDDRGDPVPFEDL
UniProt Q4DA54, 1-478: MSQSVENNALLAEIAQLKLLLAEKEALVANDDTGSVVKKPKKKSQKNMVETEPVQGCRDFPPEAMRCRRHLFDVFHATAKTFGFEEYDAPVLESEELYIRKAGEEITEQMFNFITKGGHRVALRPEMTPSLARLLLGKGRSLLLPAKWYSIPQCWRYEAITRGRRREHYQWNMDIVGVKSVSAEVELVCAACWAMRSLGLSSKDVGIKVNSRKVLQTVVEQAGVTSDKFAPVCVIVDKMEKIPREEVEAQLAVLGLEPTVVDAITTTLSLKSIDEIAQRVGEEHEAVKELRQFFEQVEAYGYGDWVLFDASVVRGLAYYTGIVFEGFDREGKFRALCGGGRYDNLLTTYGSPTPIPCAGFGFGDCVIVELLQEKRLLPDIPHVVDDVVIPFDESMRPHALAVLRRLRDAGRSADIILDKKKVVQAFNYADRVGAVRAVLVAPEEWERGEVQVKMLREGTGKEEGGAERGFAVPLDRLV

Data taken from ChEMBL document CHEMBL3988442, “University of Dundee, Small-Polar-MMV Screening Library” (2021).

Each number is a percent effect as filed. How 0% and 100% were set is not recorded. Most values in the screen are low, and negative values occur. This is an unselected part of the compounds tested.

ClpP1P2: 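Protease assay of ClpP1P2, read by the AMC dye that it sets free. Target: ClpP1P2, Mycobacterium tuberculosis (UniProt P9WPC5 and UniProt P9WPC3). Concentration: 50 µM. Higher reads as stronger inhibition, judged from the few compounds that gave an IC50. Most other retested compounds had strongly negative values. Of about 69,000 compounds tested this way, about 10 (0.015%) reached 50% or more in at least one test.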
Pks13 thioesterase: 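Enzyme assay of the thioesterase domain of polyketide synthase 13; the read-out is not stated. Target: Polyketide synthase Pks13, Mycobacterium tuberculosis (UniProt I6X8D2). Compounds at 30 µM. The record gives no direction; the compounds picked for IC50 retests had high values, so higher reads as stronger inhibition. Of about 67,000 compounds tested this way, about 300 (0.46%) reached 50% or more in at least one test.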
CoaBC: 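Enzyme assay of CoaBC with a phosphate dye (Biomol Green) read at 650 nm. Target: Coenzyme A biosynthesis protein CoaBC, Mycobacterium tuberculosis (UniProt P9WNZ1). Compounds at 30 µM. Higher reads as stronger inhibition, judged from the few compounds that gave an IC50. Most strong results did not repeat in a second test. About 67,000 compounds were tested under these conditions; 0.06% (about 40) showed 50% or more at least once.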
LiHisRS: 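Enzyme assay of histidyl-tRNA synthetase; the read-out is not stated. Target: Histidine-tRNA ligase, Leishmania infantum (UniProt A4I591). Concentration: 30 µM. The record gives no direction; compounds that gave an IC50 in retests scored well above the rest, so higher reads as stronger inhibition. The assay is labelled LdHisRS but filed under L. infantum. Of about 69,000 compounds tested this way, about 410 (0.6%) reached 50% or more in at least one test.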
TcHisRS: 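Histidine-tRNA ligase, Trypanosoma cruzi CL Brener (UniProt Q4DA54). Enzyme assay of histidyl-tRNA synthetase; the read-out is not stated. Compounds at 30 µM. The record gives no direction; compounds that gave an IC50 in retests scored well above the rest, so higher reads as stronger inhibition. Size under these conditions: about 69,000 compounds, about 31 of them at 50% or above in at least one test.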

{"compound": "CS(=O)(=O)CCN1CCSCC1c1ccc(Cl)cc1", "stereo": "centres unmarked", "ClpP1P2": -15.36, "Pks13 thioesterase": -0.4201, "CoaBC": -0.1229, "LiHisRS": 13.95, "TcHisRS": 5.952}
{"compound": "CNc1nc2c(c(C(=O)N3CCCC3)n1)CN(Cc1cc(C)no1)CC2", "ClpP1P2": 16.17, "Pks13 thioesterase": 19.76, "CoaBC": 5.977, "LiHisRS": -3.191, "TcHisRS": 7.035}
{"compound": "CC(Sc1nnc(C2CC2)n1CC(N)=O)c1ccc(Cl)cc1", "stereo": "centres unmarked", "ClpP1P2": 4.424, "Pks13 thioesterase": -30.35, "CoaBC": -4.959, "LiHisRS": 14.67, "TcHisRS": 2.89}
{"compound": "CC(=O)c1cccc(S(=O)(=O)NCC(C)(O)c2cccs2)c1", "stereo": "centres unmarked", "ClpP1P2": 5.638, "CoaBC": -9.244, "LiHisRS": 9.402, "TcHisRS": -4.444}
{"compound": "Cc1ccc(NC2CCN(C(=O)c3ccncc3)CC2)nn1", "ClpP1P2": -18.72, "Pks13 thioesterase": -20.07, "CoaBC": 4.301, "LiHisRS": 15.38, "TcHisRS": 2.857}
{"compound": "CSc1ncccc1C(=O)N1C[C@H]2CC[C@@H]1CN(C(C)=O)C2", "ClpP1P2": -7.748, "Pks13 thioesterase": -10.82, "CoaBC": 0.3619, "LiHisRS": 15.2, "TcHisRS": -3.518}
{"compound": "COc1ccccc1OCCCc1cccc(C#N)n1", "ClpP1P2": -4.349, "Pks13 thioesterase": -13.82, "CoaBC": 16.38, "LiHisRS": 16.44, "TcHisRS": 4.372}
{"compound": "O=C(NCC1CC1)Nc1cnc2cc(Cl)ccc2c1O", "ClpP1P2": 14.13, "Pks13 thioesterase": -14.46, "CoaBC": -7.778, "LiHisRS": 8.333, "TcHisRS": -4.865}
{"compound": "CCC/C=C/c1ccc(CN2CCN(C)CC2)cn1", "ClpP1P2": -7.301, "Pks13 thioesterase": -10.32, "CoaBC": 3.023, "LiHisRS": 16.13, "TcHisRS": 8.442}
{"compound": "CNC(=O)c1cn[nH]c1C1CCN(Cc2cn(C)nc2C)C1", "stereo": "centres unmarked", "ClpP1P2": -9.986, "Pks13 thioesterase": 3.68, "CoaBC": 3.09, "LiHisRS": 6.207, "TcHisRS": 3.802}
{"compound": "Cc1cc(C)c(C(=O)N2CCCC(O)(CN3CCCC3)C2)cc1C", "stereo": "centres unmarked", "ClpP1P2": -0.1697, "Pks13 thioesterase": -27.75, "CoaBC": 6.25, "LiHisRS": 13.54, "TcHisRS": 6.077}
{"compound": "COc1cccc(S(=O)(=O)N2CCN(C)[C@@H]3CS(=O)(=O)C[C@@H]32)c1", "ClpP1P2": -4.466, "Pks13 thioesterase": 11.83, "CoaBC": -2.92, "LiHisRS": 13.33, "TcHisRS": 4.242}
{"compound": "CC(C)c1ncc(CN2C[C@@H](CN3CCCC3)[C@@H](CO)C2)cn1", "ClpP1P2": -0.555, "Pks13 thioesterase": 4.165, "CoaBC": -0.6048, "LiHisRS": 18.18, "TcHisRS": 7.609}
{"compound": "COc1ccc(CNC(=O)N(Cc2ccc(F)cc2F)C2CC2)cn1", "ClpP1P2": -10.22, "Pks13 thioesterase": -14.2, "CoaBC": -4.113, "LiHisRS": -7.865, "TcHisRS": 0.7519}

Some entries from above, unchanged:

Compound,ClpP1P2,Pks13 thioesterase,CoaBC,LiHisRS,TcHisRS
COc1ccc(CNC(=O)N(Cc2ccc(F)cc2F)C2CC2)cn1,-10.22%,-14.2%,-4.113%,-7.865%,0.7519%
CCC/C=C/c1ccc(CN2CCN(C)CC2)cn1,-7.301%,-10.32%,3.023%,16.13%,8.442%